Results are given in words; binding and its absence hold for the method and conditions named. In cells and extracts the contact can be indirect. Some results given as binding are weak or reduced against the parent protein; the word gives no strength. Sequences can lack the tags named with a protein.
T1: human DYK-tagged M1AP (meiosis 1-associated protein), full-length wild type (human) (UniProt Q8TC57)
T1 sequence: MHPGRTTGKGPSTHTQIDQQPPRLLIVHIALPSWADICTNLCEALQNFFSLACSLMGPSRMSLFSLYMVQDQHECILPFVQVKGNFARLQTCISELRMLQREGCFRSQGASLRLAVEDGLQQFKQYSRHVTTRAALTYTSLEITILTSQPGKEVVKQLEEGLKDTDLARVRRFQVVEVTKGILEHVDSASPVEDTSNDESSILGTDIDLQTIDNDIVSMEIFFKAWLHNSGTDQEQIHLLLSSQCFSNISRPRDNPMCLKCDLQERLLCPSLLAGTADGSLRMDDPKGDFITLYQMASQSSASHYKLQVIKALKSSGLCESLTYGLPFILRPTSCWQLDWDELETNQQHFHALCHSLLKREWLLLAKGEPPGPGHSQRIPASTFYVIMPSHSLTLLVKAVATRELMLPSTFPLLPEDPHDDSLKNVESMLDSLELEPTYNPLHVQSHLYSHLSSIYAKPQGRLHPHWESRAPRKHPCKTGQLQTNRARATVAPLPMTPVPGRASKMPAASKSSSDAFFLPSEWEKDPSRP

Sequences of proteins named here, by UniProt entry; tags and fusion partners are left off.
UniProt Q5VXU9: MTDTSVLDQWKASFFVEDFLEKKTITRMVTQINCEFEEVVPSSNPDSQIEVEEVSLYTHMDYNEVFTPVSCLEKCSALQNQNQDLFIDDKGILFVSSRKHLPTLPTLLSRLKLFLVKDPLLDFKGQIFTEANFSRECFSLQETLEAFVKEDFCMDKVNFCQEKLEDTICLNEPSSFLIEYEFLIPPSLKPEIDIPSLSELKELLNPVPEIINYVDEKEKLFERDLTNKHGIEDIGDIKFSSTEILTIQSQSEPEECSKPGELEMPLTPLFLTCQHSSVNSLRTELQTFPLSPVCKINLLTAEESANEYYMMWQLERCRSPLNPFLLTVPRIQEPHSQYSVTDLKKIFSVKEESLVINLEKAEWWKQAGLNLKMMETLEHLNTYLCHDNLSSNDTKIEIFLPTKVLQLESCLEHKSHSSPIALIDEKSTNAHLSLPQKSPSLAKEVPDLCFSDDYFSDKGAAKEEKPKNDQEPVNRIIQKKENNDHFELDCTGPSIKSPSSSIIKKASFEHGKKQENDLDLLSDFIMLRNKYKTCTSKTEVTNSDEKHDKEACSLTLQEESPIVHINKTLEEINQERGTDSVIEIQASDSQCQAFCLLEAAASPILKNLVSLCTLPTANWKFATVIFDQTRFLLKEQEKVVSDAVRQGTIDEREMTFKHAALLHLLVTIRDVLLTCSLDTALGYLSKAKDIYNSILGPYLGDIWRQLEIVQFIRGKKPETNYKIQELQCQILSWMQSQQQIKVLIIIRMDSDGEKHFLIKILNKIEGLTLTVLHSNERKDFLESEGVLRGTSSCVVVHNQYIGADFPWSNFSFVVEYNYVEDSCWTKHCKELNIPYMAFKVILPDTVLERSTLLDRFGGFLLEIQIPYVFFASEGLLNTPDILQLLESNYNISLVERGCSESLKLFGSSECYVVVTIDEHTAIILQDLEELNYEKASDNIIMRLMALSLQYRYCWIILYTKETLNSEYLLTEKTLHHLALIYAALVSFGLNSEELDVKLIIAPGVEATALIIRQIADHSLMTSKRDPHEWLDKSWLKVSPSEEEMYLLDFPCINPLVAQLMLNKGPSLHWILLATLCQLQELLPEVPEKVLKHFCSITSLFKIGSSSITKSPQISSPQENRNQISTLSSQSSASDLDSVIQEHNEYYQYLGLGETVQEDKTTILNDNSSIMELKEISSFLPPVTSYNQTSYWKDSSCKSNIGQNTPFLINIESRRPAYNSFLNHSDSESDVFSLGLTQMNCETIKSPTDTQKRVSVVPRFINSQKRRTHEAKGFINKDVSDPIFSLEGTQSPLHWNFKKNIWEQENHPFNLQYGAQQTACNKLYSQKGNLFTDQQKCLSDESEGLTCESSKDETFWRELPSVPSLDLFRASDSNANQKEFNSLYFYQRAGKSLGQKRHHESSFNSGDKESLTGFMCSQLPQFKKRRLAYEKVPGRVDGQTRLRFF

B1: human DYK-tagged M1AP (meiosis 1-associated protein), full-length wild type (protein, UniProt Q8TC57-1 1-530)
chain: T1 sequence
B2: human HA-tagged SPO16 (C1orf146) (protein, UniProt Q5VVC0 1-180)
chain: MAESGKEKIKWTTTIIISSSLKSYEVATALENRSHKVRYSDSVENGSIIFSLSGVAFLLMDTKECLLSTEEIFLAKIEKFINIHQNSFLVLSAALHGPEEWKLMFRIQQRFLGCNLRILPVHNTVNAINLMCTIAKTTSKPYIDSICYRMITAKAYIIEQSPVWKTLQKIKLNSDSVNPN

Columns and labels:
[1] = molecular target: human HA-tagged SHOC1 (human) (UniProt Q5VXU9); test: co-IP; co-transfected HEK293T lysates (25 mM Tris-HCl pH 7.4, 150 mM NaCl, 10 mM EDTA, 1% NP-40, 5% glycerol); magnetic anti-HA tag beads hold HA-SHOC1 or HA-TEX11, 30 min at RT; DYK-M1AP detected by Western blot
[2] = molecular target: T1, human DYK-tagged M1AP (meiosis 1-associated protein), full-length wild type (human); test: co-IP; co-transfected HEK293T lysates (25 mM Tris-HCl pH 7.4, 150 mM NaCl, 10 mM EDTA, 1% NP-40, 5% glycerol); magnetic anti-DYKDDDDK tag beads hold DYK-M1AP, 30 min at RT; HA-SPO16 detected by Western blot

Binder	binding [1]	binding [2]
B1	binds	–
B2	–	binds
